# Results taken from PubChem BioAssay AID540275 (National Center for Advancing Translational Sciences (NCATS), 2011).
# Protein sequences, listed by entry. Tags and fused reporters are not part of them.
# UniProt Q8NER1, whole entry, looked up: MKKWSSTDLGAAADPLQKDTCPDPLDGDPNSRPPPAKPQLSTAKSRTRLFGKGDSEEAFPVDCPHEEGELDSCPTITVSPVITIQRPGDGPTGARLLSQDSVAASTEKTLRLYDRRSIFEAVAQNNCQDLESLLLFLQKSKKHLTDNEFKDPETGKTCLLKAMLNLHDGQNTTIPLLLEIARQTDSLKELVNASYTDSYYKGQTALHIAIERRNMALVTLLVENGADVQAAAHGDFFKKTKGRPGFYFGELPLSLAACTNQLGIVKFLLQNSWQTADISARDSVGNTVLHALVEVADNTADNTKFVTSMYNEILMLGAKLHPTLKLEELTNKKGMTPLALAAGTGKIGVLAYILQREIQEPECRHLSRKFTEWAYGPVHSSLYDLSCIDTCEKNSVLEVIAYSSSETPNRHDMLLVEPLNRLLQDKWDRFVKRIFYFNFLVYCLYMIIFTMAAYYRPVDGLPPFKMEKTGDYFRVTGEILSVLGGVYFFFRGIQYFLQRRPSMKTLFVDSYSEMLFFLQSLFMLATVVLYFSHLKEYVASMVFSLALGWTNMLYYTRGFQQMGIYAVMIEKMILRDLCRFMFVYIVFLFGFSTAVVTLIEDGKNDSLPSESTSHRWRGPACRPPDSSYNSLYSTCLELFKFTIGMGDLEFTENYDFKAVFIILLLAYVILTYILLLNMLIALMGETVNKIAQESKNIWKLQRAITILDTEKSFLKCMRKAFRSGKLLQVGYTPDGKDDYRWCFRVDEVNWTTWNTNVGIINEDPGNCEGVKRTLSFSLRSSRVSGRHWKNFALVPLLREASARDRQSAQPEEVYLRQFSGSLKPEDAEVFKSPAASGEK
# In all, about 320,000 compounds went through this assay and about 620 (0.19%) were called active. This list was built around the results that the source calls inconclusive (neither active nor inactive); the mix of calls is not that of the screen. Cut-off read from the data, not from the text of the source: active = activation above about 80%; inconclusive = between about 30% and that limit; inactive = weaker than that.
# Target: Transient receptor potential cation channel subfamily V member 1 (Homo sapiens) (UniProt Q8NER1)
# Assay: HTS Assay for Compounds that Act as Agonists of the Vanilloid Receptor 1; note: 0% is about no effect
# Conditions: TRPV1-expressing cells, Fluo-8 calcium influx, agonist mode; at 8.33 µM, hits give high values
# Method in brief: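 TRPV1-expressing cells were cultured overnight at 35.5C and loaded with Fluo-8 calcium dye for 40 to 90 min at room temperature. After a 10 s baseline, compound was added and calcium influx was read kinetically for 3 min (ex 480/em 520 nm).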
row,Structure (SMILES),activation
1,O=C(COC(=O)CSc1ccccc1)NNC(=O)c1ccc([N+](=O)[O-])cc1,inconclusive: 56.2%
2,CCC(C)(C)C1CCC(NC(=O)c2ccc(S(=O)(=O)N3CCOCC3)cc2)CC1 (stereo not drawn),active: 80.4%
3,COc1ccc(NC(=S)NCCC2=CCCCC2)cc1OC,inactive: 13.9%
4,CCCCc1ccc(C2C(C#N)=C(N)SC(N)=C2C#N)s1,inactive: 3.01%
5,COc1cccc(CNC(=O)c2ccc3c(c2)N(Cc2ccc(F)cc2Cl)C(=O)c2ccccc2S3)c1,inconclusive: 74.7%
6,CCN(CC)C(=O)CSc1nc(Cc2ccccc2)nc2ccccc12,inconclusive: 74.9%
7,CCN(CC)CC(=O)Nc1sc(C)c(C)c1C(=O)c1ccc(C)cc1,inconclusive: 45.7%
8,CCCc1[nH]nc2c1C(c1ccc(OC)c(CSC3=NCCS3)c1)C(C#N)=C(N)O2 (stereo not drawn),inconclusive: 36.9%
9,CC1(C)Cc2c(sc(NC(=O)C(=O)NCC3CCCO3)c2C(N)=O)CO1 (stereo not drawn),inactive: 1.79%
10,Cc1cc(Br)cc2c(C(=O)NCC3CCCO3)cc(-c3cccs3)nc12 (stereo not drawn),inconclusive: 33.3%
11,Cc1noc(/C=C/N(C)C)c1S(=O)(=O)N(C)Cc1ccc(F)cc1,inactive: -1.8%
12,Cc1ccc(C(=O)Cc2cc3ccccc3oc2=O)c(C)c1,inconclusive: 73.9%
13,O=C(Nc1cc2c3c(c1)CC(=O)N3CCC2)c1ccccc1Br,inactive: -1.09%
14,CCC(C(=O)Nc1ccc(C(C)C)cc1)c1ccccc1 (stereo not drawn),inconclusive: 30.5%
15,O=C(Nc1cccc([N+](=O)[O-])c1)c1ccncc1,inactive: -4.65%
16,O=C(c1cc(-c2ccc(Cl)cc2)on1)N1CCCCCC1,inconclusive: 38.6%
17,O=C(Nc1ccccc1)Nc1cccn(Cc2c(F)cccc2Cl)c1=O,inconclusive: 34.5%
18,CCCNC(=O)CCc1cc(C(C)(C)C)c(O)c(C(C)(C)C)c1,inconclusive: 53.4%
19,COC(=O)c1ccc(CON2C(=O)c3ccccc3C2=O)cc1,inconclusive: 41.3%
20,CCN(CC)CCCN(C(=O)c1ccco1)c1nc(-c2ccc(Cl)cc2)cs1,inactive: 9.08%
21,COc1ccc(NC(=O)Nc2cc(C)cc(C)c2)cn1,inconclusive: 46.9%
22,O=C(COC(=O)Cc1ccc(F)cc1)NCCc1ccccc1,inconclusive: 51.3%
23,COC(=O)c1c(-c2cccs2)csc1NC(=O)c1cccnc1,inconclusive: 31.1%
24,CCOc1ccc2nc(NC(=S)N(C)C)sc2c1,inconclusive: 43.3%

# A different layout for part of the listing above:
row	Structure (SMILES)	activation
2	CCC(C)(C)C1CCC(NC(=O)c2ccc(S(=O)(=O)N3CCOCC3)cc2)CC1 (stereo not drawn)	active: 80.4%
3	COc1ccc(NC(=S)NCCC2=CCCCC2)cc1OC	inactive: 13.9%
4	CCCCc1ccc(C2C(C#N)=C(N)SC(N)=C2C#N)s1	inactive: 3.01%

# Carrying on.

row,Structure (SMILES),activation
1,O=C(NCc1ccc2c(c1)OCO2)c1n[nH]c(=O)c2ccccc12,inactive: 1.12%
2,COc1ccc(C(=O)N/N=C/C(=O)c2ccccc2)cc1,inactive: 13.4%
3,CCn1c(CNC(=O)c2ccccc2F)cc2ccccc21,inconclusive: 42.1%
4,O=S(=O)(c1ccc(F)cc1)N1CCN(CC(O)COc2ccccc2F)CC1 (stereo not drawn),inactive: 1.34%
5,CC(C)(C)n1nnnc1C(c1cccnc1)N(Cc1ccccc1)Cc1cccs1 (stereo not drawn),inconclusive: 47.9%
6,Cc1ccc(C2(c3ccc(C)cc3)CC2C(=O)NCc2cccnc2)cc1 (stereo not drawn),inconclusive: 41.2%
7,O=C(Nc1ccc2ccccc2c1)c1cccc(F)c1,inconclusive: 76.2%
8,COc1ccc(NC(=O)c2c(F)c(F)c(F)c(F)c2F)cc1Cl,inconclusive: 51.8%
9,COc1ccccc1CN(C)S(=O)(=O)c1cccs1,inactive: 1.52%
10,O=C(NCc1ccncc1)C(=O)NCC1OCCN1S(=O)(=O)c1ccc(Br)cc1 (stereo not drawn),inconclusive: 39.4%
11,CC1CCCCN1CCNC(=O)C1CCN(S(=O)(=O)c2cccc3cccnc23)CC1 (stereo not drawn),inactive: -2.04%
12,c1ccc(CCNc2nc(-c3ccccn3)cs2)cc1,inconclusive: 42.5%
13,O=C(CN1CCCC1)NN=C(c1ccccc1)c1ccccc1,inactive: 0.559%
14,CCCCOC(=O)Nc1ccc(C(=O)OCCC)cc1,inconclusive: 35.5%
15,COc1cccc(CNC(=O)CSc2nc(=O)n(Cc3ccncc3)c3c2CCC3)c1,inactive: -1.58%
16,O=C(Nc1ccc(F)cc1)c1ccc(CN2CCc3ccccc3C2)cc1,inconclusive: 34.1%
17,Cc1ccc(-c2nnc3n2N=C(c2ccccc2)CS3)cc1,inconclusive: 36%
18,CCCCCCCC(=O)Nc1ccc(C(=O)N/N=C/c2cccc([N+](=O)[O-])c2)cc1,inconclusive: 34.6%
19,O=C(Nc1ccc([N+](=O)[O-])cc1)C1COc2ccccc2O1 (stereo not drawn),inconclusive: 56.7%
20,Cc1cccn2c(=O)c3cc(C(=O)NCC4CCCO4)c(=N)n(C4CCCCC4)c3nc12 (stereo not drawn),active: 90.6%
21,O=C(/C=C/c1ccccc1)Nc1nc(-c2ccncc2)cs1,inactive: 7.64%
22,Cc1ccccc1CN(c1ccc(C(=O)N2CCc3ccccc3C2)cc1)S(C)(=O)=O,inconclusive: 35.6%
23,CCOc1cc(C(=O)Nc2ccc(F)cc2)cc(Br)c1OC,inconclusive: 70.7%
24,OC(CN1CCN(C(c2ccccc2)c2ccccc2)CC1)c1ccc(Br)cc1 (stereo not drawn),inactive: 0.207%

row,Structure (SMILES),activation
1,C=CCCC(=O)Nc1nc(C)c(-c2csc(Nc3cc(OC)ccc3OC)n2)s1,inactive: 3.95%
2,CC(=O)NNc1nc(-c2ccccc2)cs1,inactive: -3.76%
3,CCOc1nc(Nc2ccc(OC)cc2)nc(N2CCOCC2)n1,inconclusive: 73.1%
4,CCOc1cccc(CN2CCCC(N3CCN(c4cccc(Cl)c4)CC3)C2)c1O (stereo not drawn),inactive: 8.13%
5,O=C1C=C(c2cccc(Br)c2)C[C@@H](c2ccc(F)cc2)C1,inconclusive: 43.7%
6,CC(C)n1c(N2CCN(C(=O)NCc3ccccc3)CC2)nc2ccccc21,inconclusive: 45.8%
7,CN=Cc1cc(-c2ccccc2)sc1O,inconclusive: 35.3%
8,Cc1ccc(-c2nc(N3CCOCC3)sc2C(=O)N2CCOCC2)cc1,inconclusive: 67.1%
9,Cc1cccc(N2CCN(C(=O)c3ccnn3C)CC2)c1C,inconclusive: 55.1%
10,CCCOc1ccc(/C=N/NC(=O)C2CC2)c(OCCC)c1,inconclusive: 57%
11,Nc1cc(N)c(OCC(F)(F)F)cc1OCC(F)(F)F,inactive: 6.28%
12,Cc1ccc(CNC(=O)c2ccc(Br)o2)cc1,inconclusive: 34%
13,COC(=O)c1ccc(/C=N\NC(=O)c2c(C)nc3ccc(Cl)cn23)cc1,inactive: -1.16%
14,O=C(N/C=N/O)C1=NOC(CNc2ncc(C(F)(F)F)cc2Cl)C1 (stereo not drawn),inconclusive: 55.5%
15,CCOC(=O)CSc1nc2ccccc2n1CC(=O)NC(C)(C)C,inactive: -0.493%
16,O=C(Nc1ccccc1)Nc1nc(-c2ccc(F)c(F)c2)cs1,inconclusive: 59.4%
17,Cc1cc(C)cc(C(=O)Nn2cnnc2)c1,inactive: -4.43%
18,O=C(/C=C/c1ccc(Br)cc1)NCCCn1ccnc1,inconclusive: 38.9%
19,Cc1ccc2nc(NC(=O)CS(=O)(=O)Cc3ccccc3)sc2c1,active: 84.6%
20,c1cc2c(cc1-c1cnc3n1CCC3)OCCO2,inconclusive: 33.5%
21,COC(=O)Cc1ccc(NC(=S)NCc2ccc(S(N)(=O)=O)cc2)cc1,inactive: -0.0339%
22,COc1cc2oc3ccccc3c2cc1N(CC(=O)N(C)C)S(=O)(=O)c1ccc(C)cc1,inconclusive: 36.3%
23,COc1ccccc1-n1c(CCn2nc(C)c(Br)c2C)n[nH]c1=S,inactive: 3.22%
24,CCOC(=O)c1nnsc1Nc1ccc(C)c(C)c1,inconclusive: 30.5%

# Quoted from the listing.
# For activation, O=C(Nc1ccc([N+](=O)[O-])cc1)C1COc2ccccc2O1 (stereo not drawn) has the entry inconclusive: 56.7%
# For activation, CCOc1ccc2nc(NC(=S)N(C)C)sc2c1 has the entry inconclusive: 43.3%
# For activation, CCCc1[nH]nc2c1C(c1ccc(OC)c(CSC3=NCCS3)c1)C(C#N)=C(N)O2 (stereo not drawn) has the entry inconclusive: 36.9%

# Next part

row,Structure (SMILES),activation
1,Cc1cccc(N2CCN(C(=O)C3CC(=O)N(C4CCCC4)C3)CC2)c1C (stereo not drawn),inconclusive: 60.3%
2,C=CCn1c(C)cc(C2=NNC(=Nc3ccc(C)cc3)SC2)c1C,inactive: -1.92%
3,COc1ccc(CN2CC(=O)N(c3cccc(Cl)c3)C2=S)cc1OC,inconclusive: 48.5%
4,CC(=O)c1ccc(N2CCN(C(=O)Nc3ccc(F)cc3F)CC2)cc1,inconclusive: 46.3%
5,COc1ccc(NC(=O)c2cccc(Cn3cc(Br)cn3)c2)cn1,inconclusive: 47.9%
6,COc1cccc(NC(=O)NC(C)C2CC3CCC2C3)c1 (stereo not drawn),inconclusive: 51.4%
7,COc1ccc([C@@H]2Sc3cc(OC)ccc3N(CCN(C(C)C)C(C)C)C(=O)[C@H]2OC(C)=O)cc1,inactive: 1.22%
8,O=C(Cc1ccc(-c2ccccc2)cc1)Nc1ccccn1,inactive: 1.09%
9,COc1cc(OC)cc(-c2cc3ccc(OC)cc3cn2)c1,inactive: 5.45%
10,COc1ccc(N(C)C(=O)c2cc3c(s2)-c2ccccc2OC3)c(OC)c1,inconclusive: 33.3%
11,O=C(CCCN=C1NS(=O)(=O)c2ccccc21)OCC(=O)c1ccccc1,inconclusive: 30.6%
12,O=[N+]([O-])c1ccc(N/N=C2/CCCCC2c2ccccn2)cc1 (stereo not drawn),inactive: -1.76%
13,O=C1CNC(=O)/C(=C/c2ccco2)N1,inactive: -0.209%
14,O=C(Nc1ccc(F)c(Cl)c1)N1CCCCCC1,inconclusive: 42.3%
15,O=C(Nc1ccc(N2CCCCC2)cc1)c1ccc([N+](=O)[O-])o1,inconclusive: 73.4%
16,Cc1cc(C)c(S(=O)(=O)N2CCN(C(=O)N3CCOCC3)CC2)c(C)c1,inconclusive: 34.9%
17,CCCc1ccc2oc(C(=O)N3CCCC3)c(C)c2c1,inconclusive: 40.1%
18,CCC(NC(=O)NCc1ccccc1)(C(F)(F)F)C(F)(F)F,inconclusive: 32.9%
19,CCCCCCNc1c([N+](=O)[O-])c(=O)sc2ccccc12,inconclusive: 40.3%
20,CNC(=O)c1[nH]cnc1C(=O)N[C@@H](Cc1ccccc1)C(=O)OC(C)(C)C,inconclusive: 56.4%
21,COCCNC(=S)N1CCC(C(=O)c2ccc3c(c2)OCCO3)CC1,inactive: 13.2%
